Test results reported in PMC9896034.
No constants are given. Whether binding was seen depends on the method and setting. In cells and extracts the contact can be indirect. Some entries that bind do so weakly or less than the wild type.

Chains of the proteins cited; added tags and fusions are not shown. Lines headed by an entry give the natural chain unless they say otherwise; changes in a name come on top.
UniProt Q13177: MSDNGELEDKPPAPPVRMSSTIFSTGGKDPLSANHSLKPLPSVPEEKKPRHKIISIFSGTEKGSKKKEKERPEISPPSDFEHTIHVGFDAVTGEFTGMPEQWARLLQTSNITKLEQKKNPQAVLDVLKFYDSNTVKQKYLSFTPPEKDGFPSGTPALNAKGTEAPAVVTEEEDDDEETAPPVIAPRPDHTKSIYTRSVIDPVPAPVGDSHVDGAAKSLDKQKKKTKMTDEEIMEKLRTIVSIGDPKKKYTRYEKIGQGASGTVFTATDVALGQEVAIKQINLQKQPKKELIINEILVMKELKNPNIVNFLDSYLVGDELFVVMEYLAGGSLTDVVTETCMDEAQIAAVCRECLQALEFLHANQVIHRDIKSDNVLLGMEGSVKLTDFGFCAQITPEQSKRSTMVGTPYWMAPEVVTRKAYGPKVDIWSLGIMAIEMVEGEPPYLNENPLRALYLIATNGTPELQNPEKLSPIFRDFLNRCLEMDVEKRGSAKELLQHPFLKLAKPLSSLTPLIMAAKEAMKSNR
UniProt O15198: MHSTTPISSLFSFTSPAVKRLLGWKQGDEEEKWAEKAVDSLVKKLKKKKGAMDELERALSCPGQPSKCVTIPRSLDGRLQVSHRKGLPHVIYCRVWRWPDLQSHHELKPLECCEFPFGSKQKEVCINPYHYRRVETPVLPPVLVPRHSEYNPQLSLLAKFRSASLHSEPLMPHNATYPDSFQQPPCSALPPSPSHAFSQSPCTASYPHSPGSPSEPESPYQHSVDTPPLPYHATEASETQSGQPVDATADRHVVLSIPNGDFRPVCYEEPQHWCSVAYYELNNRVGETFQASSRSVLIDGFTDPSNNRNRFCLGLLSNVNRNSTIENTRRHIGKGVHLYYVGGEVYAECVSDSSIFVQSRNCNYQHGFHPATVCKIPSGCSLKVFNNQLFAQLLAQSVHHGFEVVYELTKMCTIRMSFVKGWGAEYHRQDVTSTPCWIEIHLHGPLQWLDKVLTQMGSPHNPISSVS

Key:
Test in all cases: co-IP; whole cell lysates in NP-40 lysis buffer with protease and phosphatase inhibitors; immunoprecipitated with anti-HA-PAK2 antibody at 4 °C overnight, protein A/G beads, immunoblotted with the corresponding antibodies (anti-FLAG or anti-HA)
PAK2-E253A (human) = PAK2-E253A (human) (UniProt Q13177)
[1] = biological target: HA-tagged WT-PAK2 (p21-activated kinase 2) (human) (UniProt Q13177)
PAK2-P151S (human) = PAK2-P151S (human) (UniProt Q13177)

binding (PAK2-E253A (human)) | binding [1] | binding (PAK2-P151S (human)) | Substance
no binding | binds | no binding | Flag-tagged WT Smad9 (from UniProt O15198 1-467)
 | no binding |  | Flag-tagged kinase-deficient (S417E) Smad9 (from UniProt O15198 1-467)
